# For at least one compound, name, drawing or mass did not settle the structure.
# Test system: patients with SAH after aneurysmal rupture
# Assay: Spasm (CVS) related brain infarcts on CCT in SAH patients, Molsidomine in addition to standard therapy vs standard Nimodipine therapy
# Format: in vivo, human
# Settings: Molsidomine-treated vs not Molsidomine-treated patients
# Method: CCT at the beginning and after treatment were analyzed independently by two experienced neuroradiologists and were scanned for development of delayed brain infarction. At least three months after discharge a modified NIH-SS and a modified Rankin Scale (mRS) for clinical follow up was assessed. 83 patients admitted to the Intensive Care Unit of the University Hospital of Munster, Germany, after spontaneous aneurysmal SAH were registered in an observational study. […] These patients were excluded from further evaluation. […] Out of 76 individuals 27 patients received Molsidomine i.v. in an individually up-titrated dosage with a target quantity of 3.5-10 mg/h dependent on systemic circulation reactions. […] Within 24 h after admission to the ICU patients were treated with coil embolization and/or clipping. […] Appearance of CVS. Male and female patients with an age of 18 years and written informed consent for the additional application of Molsidomine. Spontaneous SAH after aneurysmal rupture and a clinical stage of Hunt and Hess grade Ito V. Exclusion criteria for patients were: No detected CVS. […] CVS related infarcts were diagnosed if hypodense lesions could be detected 72 h or later after therapeutic intervention or operation in comparison to the 24 h control CCT scan and being accompanied by clinical deterioration due to CVS or positive Doppler ultrasound or CVS in DSA.
structure (smiles),measurement,value
"CCOC(=O)[N-]c1c[n+](N2CCOCC2)no1 [Molsidomine, N-ethoxycarbonyl-3-morpholinosydnonimine]",rate of vasospasm related brain infarctions in favour of Molsidomine patients,1:4

# Source: patent US20130252959A1, “NITRIC OXIDE DONORS IN THERAPY OF NITRIC OXIDE DEFICIENCY-INDUCED DISTURBANCES OF CEREBRAL MICROCIRCULATION” (West-Falische Wilhelms-Universitat Munster, priority 2010, published 2013)
